{"sequences": {"note": "Sequences of proteins named here, by UniProt entry; tags and fusion partners are left off. A change or cut given only in a name is not applied to a line headed by its entry.", "UniProt Q08722": "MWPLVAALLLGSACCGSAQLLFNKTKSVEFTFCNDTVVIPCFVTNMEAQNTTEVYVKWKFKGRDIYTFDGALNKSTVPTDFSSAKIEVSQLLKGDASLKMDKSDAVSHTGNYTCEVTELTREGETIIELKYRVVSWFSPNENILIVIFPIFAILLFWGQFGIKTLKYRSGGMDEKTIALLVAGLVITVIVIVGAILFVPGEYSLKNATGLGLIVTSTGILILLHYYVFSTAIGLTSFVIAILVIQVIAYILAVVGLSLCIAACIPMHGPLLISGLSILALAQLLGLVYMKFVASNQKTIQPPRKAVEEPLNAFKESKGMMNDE"}, "source": "patent US20190373867A1", "key": {"[1]": {"target": "humanized SIRPα of B-hSIRPα mice (chimeric human/mouse SIRPα) (chimeric human/mouse) (UniProt P97797)", "assay": "flow cytometry; CD47 protein on peritoneal cavity cells of B-hSIRPα mice, detected with anti-CD47 human antibody and AF647-Anti-hIgG"}, "[2]": {"target": "T1, endogenous mouse SIRPα of wildtype C57BL/6 mice (NP_031573.2) (mouse (C57BL/6)) (UniProt P97797)", "T1 sequence": "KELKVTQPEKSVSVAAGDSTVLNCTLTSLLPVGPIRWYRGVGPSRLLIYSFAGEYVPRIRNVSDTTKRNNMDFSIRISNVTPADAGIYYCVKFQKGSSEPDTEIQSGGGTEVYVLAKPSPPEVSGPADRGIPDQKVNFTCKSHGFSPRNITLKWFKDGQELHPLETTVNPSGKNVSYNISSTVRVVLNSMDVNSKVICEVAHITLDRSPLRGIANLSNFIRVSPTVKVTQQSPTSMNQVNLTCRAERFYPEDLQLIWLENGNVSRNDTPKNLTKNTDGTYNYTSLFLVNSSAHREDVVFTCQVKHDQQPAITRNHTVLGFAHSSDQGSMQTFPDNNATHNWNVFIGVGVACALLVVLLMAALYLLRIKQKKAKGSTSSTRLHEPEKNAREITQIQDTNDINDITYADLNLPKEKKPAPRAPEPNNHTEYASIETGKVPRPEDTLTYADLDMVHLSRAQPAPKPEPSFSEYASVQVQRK", "assay": "flow cytometry; CD47 protein on peritoneal cavity cells of wildtype C57BL/6 mice, detected with anti-CD47 human antibody and AF647-Anti-hIgG"}}, "note": "These are yes or no findings as the source states them, for the method shown. Some binding calls cover weakened binding; strength is not graded here."}
{"substance": "human CD47 proteins (added to peritoneal cavity cells, Example 16) (from UniProt Q08722 19-139) (ligand)", "values": [{"measurement": "binding", "setting": "[1]", "result": "binds"}, {"measurement": "binding", "setting": "[2]", "result": "binds"}]}
